Measured values as given in article doi:10.1101/2020.04.07.031013.
Where two headings read alike, the source gives them in different places. Results are given in words; binding and its absence hold for the method and conditions named. Binding seen in cells or lysates may run through a third protein. Some binding calls cover weakened binding; strength is not graded here.

Sequences of proteins named here, by UniProt entry; tags and fusion partners are left off. Residues count along the entry.
UniProt Q8DVX3, residues 21-271: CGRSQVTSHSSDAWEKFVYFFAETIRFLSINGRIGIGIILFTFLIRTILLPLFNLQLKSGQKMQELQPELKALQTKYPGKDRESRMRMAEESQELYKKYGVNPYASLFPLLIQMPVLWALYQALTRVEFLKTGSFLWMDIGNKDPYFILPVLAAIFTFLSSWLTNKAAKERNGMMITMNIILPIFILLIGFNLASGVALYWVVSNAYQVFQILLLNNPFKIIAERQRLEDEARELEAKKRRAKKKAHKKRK
UniProt Q8DSP8, residues 24-310: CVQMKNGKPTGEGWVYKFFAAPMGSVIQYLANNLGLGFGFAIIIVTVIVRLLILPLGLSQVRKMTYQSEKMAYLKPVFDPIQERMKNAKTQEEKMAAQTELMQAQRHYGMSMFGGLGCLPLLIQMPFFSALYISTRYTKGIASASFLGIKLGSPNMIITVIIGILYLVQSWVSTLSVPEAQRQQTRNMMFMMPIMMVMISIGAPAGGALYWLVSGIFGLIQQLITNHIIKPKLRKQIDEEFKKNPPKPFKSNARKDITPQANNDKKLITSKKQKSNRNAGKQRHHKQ
UniProt Q8CWX8: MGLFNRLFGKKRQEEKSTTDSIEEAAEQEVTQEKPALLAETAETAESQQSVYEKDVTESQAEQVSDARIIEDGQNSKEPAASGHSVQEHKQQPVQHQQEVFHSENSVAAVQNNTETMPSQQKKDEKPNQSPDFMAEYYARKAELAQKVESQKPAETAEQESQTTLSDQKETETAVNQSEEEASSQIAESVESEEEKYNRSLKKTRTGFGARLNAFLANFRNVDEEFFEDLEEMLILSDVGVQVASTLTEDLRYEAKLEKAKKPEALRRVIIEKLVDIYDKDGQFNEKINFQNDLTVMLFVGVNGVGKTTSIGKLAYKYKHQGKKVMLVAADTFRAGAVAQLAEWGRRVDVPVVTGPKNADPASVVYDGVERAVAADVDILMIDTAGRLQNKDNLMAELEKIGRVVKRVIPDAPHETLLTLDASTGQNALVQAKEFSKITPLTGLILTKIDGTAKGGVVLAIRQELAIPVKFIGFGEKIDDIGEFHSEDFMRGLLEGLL

What was measured:
Experiment in all cases: cross-linking
[1] = target: YidC1 (Streptococcus mutans (endogenous in UA159)) (UniProt Q8DVX3)
[2] = target: YidC2 (Streptococcus mutans (endogenous in UA159 and NG8)) (UniProt Q8DSP8)
[3] = target: YidC1 (Streptococcus mutans (endogenous in UA159)) (UniProt Q8DVX3); remark: listed apart in the source

Molecule | binding [1] | binding [2] | binding [3]
FtsY (from UniProt Q8CWX8 1-498) | no binding |  | 
Ffh (protein, UniProt Q54431 1-516) MAFESLTERLQGVFKNLRGKRKLSEKDVQEVTKEIRLALLEADVALPVVKEFIKRVRKRAVGHEVIDTLDPSQQIIKIVNEELTAVLGSETAEIEKSSKIPTIIMMVGLQGAGKTTFAGKLANKLVKEENARPLMIAADIYRPAAIDQLKTLGQQINVPVFDMGTEHSAVEIVSQGLAQAKENRNDYVLIDTAGRLQIDEKLMTELRDIKALANPNEILLVVDSMIGQEAANVAREFNQQLEVTGVILTKIDGDTRGGAALSVRQITGKPIKFTGTGEKITDIETFHPDRMSSRILGMGDLLTLIEKASQDYDEQKSAELAEKMRENSFDFNDFIEQLDQVQNMGSMEDILKMIPGMANNPALANVKVDEGEIARKRAIVSSMTPEERENPDLLTPSRRRRIASGSGNTFVNVNKFIKDFNQAKKMMQGVMSGDMNKVMKQMGINPNNMPKNMDSSALEGMMGQGGMPDMSELSGTNMDVSQMFGGGLKGKVGEFAMKQSMKKMAKRMKKAKKRKK |  | binds | no binding
